Experimental data as given in the supplement of paper PMC10849652.
Some of the results follow.

Amino acid sequences for entries named in this document (tags omitted). A change or cut given only in a name is not applied to a line headed by its entry.
UniProt P42695: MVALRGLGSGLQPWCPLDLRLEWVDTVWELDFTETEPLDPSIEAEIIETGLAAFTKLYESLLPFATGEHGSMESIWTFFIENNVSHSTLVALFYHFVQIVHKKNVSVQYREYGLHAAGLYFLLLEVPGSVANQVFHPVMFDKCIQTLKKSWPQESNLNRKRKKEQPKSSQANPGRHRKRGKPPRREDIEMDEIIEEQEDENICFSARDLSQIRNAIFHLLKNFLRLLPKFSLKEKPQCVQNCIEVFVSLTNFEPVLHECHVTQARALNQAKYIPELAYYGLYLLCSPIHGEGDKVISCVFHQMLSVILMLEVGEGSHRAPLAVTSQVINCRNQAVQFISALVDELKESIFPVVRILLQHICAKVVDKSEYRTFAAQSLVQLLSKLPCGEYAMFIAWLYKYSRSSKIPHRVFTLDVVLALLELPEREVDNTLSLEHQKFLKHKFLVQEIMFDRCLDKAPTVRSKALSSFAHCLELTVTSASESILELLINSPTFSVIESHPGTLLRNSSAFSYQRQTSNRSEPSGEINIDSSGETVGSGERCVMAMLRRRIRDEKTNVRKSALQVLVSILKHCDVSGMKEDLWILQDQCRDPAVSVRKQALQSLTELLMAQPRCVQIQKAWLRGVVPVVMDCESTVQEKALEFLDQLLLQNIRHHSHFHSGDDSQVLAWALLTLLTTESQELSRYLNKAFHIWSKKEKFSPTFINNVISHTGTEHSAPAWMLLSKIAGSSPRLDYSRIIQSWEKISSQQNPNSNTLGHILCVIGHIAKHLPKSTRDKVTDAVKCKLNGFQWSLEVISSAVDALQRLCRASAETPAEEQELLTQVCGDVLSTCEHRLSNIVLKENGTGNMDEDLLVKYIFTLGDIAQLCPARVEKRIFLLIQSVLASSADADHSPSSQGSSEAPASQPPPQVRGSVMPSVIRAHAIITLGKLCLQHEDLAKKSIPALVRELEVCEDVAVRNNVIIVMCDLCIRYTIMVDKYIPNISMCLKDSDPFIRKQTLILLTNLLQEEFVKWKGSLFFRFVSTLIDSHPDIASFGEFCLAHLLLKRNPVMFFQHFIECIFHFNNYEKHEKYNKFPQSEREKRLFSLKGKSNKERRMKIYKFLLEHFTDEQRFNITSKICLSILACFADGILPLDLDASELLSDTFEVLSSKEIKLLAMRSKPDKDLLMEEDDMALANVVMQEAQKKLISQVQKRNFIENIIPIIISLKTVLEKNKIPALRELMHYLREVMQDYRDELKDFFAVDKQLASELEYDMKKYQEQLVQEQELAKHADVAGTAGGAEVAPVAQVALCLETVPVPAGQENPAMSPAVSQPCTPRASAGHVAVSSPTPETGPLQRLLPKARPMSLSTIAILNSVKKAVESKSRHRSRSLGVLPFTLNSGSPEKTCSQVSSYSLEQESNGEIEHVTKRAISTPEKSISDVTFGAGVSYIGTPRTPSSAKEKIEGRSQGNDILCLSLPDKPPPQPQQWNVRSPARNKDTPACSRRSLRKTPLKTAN
UniProt P52298: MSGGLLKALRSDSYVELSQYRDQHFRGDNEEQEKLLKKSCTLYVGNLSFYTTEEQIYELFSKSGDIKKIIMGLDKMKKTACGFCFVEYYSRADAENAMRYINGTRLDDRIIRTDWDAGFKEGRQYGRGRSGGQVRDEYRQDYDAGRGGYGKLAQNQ
UniProt Q9BTX1: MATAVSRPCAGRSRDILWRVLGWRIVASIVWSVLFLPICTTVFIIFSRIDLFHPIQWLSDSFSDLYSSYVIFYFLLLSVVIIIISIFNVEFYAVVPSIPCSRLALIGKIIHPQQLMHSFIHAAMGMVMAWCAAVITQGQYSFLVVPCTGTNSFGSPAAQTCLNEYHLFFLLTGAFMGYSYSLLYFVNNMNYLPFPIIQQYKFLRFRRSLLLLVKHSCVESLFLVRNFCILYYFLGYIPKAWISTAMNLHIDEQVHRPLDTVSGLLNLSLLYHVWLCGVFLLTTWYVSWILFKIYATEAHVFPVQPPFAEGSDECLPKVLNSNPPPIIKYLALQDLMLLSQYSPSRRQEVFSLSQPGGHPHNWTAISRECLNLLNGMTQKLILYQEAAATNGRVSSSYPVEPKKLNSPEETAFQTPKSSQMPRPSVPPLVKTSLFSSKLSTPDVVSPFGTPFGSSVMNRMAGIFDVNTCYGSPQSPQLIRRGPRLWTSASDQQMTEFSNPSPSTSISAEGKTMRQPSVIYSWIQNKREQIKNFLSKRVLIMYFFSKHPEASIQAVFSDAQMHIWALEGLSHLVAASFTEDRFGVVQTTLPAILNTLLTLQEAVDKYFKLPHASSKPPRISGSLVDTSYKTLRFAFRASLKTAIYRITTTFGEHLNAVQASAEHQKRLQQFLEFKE
UniProt Q9NX14, whole entry, looked up: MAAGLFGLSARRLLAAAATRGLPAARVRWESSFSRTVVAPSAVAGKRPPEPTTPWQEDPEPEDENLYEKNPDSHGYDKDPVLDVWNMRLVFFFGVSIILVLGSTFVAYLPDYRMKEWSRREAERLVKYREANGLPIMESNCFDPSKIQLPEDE
UniProt Q9UGV2: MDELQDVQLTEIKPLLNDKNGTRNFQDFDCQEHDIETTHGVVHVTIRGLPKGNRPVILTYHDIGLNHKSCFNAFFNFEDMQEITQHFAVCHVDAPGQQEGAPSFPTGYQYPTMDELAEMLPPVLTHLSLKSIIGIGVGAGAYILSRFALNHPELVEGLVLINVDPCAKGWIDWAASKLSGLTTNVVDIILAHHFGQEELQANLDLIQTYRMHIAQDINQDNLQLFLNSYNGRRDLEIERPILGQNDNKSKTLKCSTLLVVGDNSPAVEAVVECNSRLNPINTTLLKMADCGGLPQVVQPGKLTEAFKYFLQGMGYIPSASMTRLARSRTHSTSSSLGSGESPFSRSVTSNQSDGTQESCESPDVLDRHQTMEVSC
UniProt Q6XQN6: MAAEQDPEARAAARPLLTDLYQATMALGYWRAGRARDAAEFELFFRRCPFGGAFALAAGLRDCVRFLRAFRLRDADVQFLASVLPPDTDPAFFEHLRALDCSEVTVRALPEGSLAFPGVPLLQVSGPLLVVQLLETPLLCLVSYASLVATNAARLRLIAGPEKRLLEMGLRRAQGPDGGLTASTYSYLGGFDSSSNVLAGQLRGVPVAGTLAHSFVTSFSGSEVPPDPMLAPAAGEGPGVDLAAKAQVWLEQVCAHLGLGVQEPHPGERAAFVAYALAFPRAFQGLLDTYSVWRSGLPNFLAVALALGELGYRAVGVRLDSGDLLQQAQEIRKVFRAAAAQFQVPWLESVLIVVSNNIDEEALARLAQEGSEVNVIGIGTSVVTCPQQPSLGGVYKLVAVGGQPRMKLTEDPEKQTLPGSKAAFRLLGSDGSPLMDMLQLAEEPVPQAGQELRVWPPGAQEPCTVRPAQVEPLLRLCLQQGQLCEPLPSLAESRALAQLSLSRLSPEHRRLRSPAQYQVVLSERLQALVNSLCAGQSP
UniProt P54802: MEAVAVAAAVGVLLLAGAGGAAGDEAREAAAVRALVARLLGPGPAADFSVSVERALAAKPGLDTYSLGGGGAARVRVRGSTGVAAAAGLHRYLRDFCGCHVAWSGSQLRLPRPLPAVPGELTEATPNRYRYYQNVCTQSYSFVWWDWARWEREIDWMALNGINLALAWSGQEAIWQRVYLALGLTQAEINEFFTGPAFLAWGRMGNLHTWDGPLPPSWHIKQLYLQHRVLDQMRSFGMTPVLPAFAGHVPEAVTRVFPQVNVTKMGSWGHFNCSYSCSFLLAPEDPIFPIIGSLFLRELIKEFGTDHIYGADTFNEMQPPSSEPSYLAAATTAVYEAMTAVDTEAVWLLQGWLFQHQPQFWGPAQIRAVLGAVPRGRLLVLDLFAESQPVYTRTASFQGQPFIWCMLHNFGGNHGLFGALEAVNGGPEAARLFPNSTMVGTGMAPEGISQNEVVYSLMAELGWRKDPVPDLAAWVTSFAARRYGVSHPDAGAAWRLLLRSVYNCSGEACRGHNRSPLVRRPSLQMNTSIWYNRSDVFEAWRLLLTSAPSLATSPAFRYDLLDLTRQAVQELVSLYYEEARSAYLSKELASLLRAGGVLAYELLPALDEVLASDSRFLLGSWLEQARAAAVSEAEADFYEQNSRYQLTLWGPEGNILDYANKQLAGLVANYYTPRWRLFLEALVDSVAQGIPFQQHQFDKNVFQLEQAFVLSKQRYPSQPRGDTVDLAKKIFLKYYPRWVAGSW
UniProt Q15843, whole entry, looked up: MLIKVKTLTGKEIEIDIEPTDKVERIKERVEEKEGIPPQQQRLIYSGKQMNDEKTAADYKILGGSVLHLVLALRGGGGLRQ
UniProt Q9P032: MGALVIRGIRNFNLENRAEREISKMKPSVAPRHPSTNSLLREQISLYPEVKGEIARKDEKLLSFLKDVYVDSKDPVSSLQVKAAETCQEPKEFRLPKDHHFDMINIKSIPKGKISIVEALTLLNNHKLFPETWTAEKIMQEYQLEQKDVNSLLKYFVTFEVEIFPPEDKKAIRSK
UniProt Q9GZZ1: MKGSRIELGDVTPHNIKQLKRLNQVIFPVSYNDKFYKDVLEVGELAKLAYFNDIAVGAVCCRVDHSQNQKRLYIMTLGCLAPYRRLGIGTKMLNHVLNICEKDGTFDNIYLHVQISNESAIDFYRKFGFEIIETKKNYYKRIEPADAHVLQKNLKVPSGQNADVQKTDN
UniProt O60934: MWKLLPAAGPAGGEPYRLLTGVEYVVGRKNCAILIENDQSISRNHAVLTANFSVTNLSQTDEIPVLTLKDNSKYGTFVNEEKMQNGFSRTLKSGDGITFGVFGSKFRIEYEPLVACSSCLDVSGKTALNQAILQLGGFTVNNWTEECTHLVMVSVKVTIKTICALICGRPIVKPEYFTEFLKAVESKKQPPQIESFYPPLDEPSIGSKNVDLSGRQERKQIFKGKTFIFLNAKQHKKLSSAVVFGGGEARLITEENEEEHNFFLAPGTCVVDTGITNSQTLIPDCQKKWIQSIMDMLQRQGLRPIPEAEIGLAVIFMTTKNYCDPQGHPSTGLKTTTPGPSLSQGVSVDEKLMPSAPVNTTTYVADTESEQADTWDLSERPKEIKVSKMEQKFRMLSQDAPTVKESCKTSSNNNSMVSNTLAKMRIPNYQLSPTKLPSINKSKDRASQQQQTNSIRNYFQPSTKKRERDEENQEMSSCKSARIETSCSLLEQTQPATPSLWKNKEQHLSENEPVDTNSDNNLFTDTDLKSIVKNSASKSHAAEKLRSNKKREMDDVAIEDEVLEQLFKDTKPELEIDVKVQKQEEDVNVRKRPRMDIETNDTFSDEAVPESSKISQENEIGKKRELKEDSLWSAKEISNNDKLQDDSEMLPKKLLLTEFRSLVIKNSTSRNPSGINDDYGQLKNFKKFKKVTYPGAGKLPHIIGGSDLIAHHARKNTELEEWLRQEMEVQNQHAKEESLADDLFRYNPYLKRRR
UniProt Q6NZ67, whole entry, looked up: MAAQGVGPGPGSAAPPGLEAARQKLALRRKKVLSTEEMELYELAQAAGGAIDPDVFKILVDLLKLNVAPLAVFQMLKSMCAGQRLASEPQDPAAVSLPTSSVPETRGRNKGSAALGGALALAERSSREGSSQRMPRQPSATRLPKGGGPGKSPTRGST
UniProt O95168, whole entry, looked up: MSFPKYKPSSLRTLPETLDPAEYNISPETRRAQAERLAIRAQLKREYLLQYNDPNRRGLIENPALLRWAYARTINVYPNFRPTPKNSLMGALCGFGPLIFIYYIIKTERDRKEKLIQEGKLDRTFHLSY
UniProt O95298, whole entry, looked up: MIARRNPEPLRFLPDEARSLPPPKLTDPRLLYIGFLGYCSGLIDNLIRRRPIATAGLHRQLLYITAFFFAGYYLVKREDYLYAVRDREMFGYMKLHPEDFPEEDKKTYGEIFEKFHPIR
UniProt P49321, whole entry, looked up: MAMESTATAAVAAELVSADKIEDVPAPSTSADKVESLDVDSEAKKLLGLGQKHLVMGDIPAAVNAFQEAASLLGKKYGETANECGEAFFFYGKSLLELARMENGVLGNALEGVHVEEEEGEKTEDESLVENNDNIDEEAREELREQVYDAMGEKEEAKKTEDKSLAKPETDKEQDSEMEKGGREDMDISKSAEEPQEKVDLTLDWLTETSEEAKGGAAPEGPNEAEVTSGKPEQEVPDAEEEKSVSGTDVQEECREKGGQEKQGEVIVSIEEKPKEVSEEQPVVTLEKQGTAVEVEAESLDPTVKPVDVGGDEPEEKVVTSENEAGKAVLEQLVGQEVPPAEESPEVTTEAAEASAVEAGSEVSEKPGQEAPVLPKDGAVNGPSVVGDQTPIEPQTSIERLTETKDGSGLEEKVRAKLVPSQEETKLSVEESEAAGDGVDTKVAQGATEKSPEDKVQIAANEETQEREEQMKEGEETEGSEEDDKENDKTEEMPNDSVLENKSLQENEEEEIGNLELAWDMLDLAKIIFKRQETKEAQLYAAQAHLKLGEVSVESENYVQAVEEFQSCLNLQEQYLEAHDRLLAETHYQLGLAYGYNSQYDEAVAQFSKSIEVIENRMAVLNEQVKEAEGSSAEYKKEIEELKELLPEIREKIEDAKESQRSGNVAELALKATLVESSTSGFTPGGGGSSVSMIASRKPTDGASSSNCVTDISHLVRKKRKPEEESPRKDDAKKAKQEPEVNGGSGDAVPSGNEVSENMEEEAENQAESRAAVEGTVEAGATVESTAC
UniProt O75438, whole entry, looked up: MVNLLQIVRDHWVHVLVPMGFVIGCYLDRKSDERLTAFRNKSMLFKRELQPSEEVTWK

Tests used:
Assay in all cases: log2 fold change, soluble protein after heating vs DMSO (PISA); higher = thermal stabilisation; K562 cells, 10 uM, 30 min; active = over 0.2 and 3.5 SD of the protein, either way, in both replicates (recomputed)
[1] = compound: C1=CC=C(C=C1)[C@H](COC2=CC3=C(C=C2)NC(=O)N3)NC(=O)C4=CC=CN(C4=O)CC5=CC(=C(C=C5)F)F
Procedure, shortened: (§1)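 K562 cells (2×10^6 cells/mL) were treated with 10 μM compound for 30 min, and aliquots were heated for 3 min over 48°C-58°C. Pooled aliquots were extracted in PBS with 0.5% NP-40 at 4°C, and the supernatant after 21,000xg for 90 min was measured by TMTpro 16plex LC-MS/MS with channel sums equalised. Reported thermal stability, relative to control samples and from duplicates, is a log2 fold change.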

[2] = compound: CC1=C(SC2=C1C(=N[C@H](C3=NN=C(N32)C)CC(=O)N)C4=CC=C(C=C4)Cl)C
Procedure, shortened: as §1

[3] = compound: CC1=C2C(=CC=C1)N=C(N(C2=O)C3=CC=CC=C3C)CN4C=NC5=C(N=CN=C54)N
Procedure, shortened: as §1

[4] = compound: Cc1sc2c(c1C)C(c1ccc(Cl)cc1)=N[C@@H](CC(=O)OC(C)(C)C)c1nnc(C)n1-2
Procedure, shortened: as §1

[5] = compound: c1ccc([C@@H]2C[C@H]2NC2CCNCC2)cc1
Procedure, shortened: as §1

Measured: log2 fold change

NCKAP1 isoform 2 (UniProt Q9Y2A7)
inactive: [1] -0.037 | [2] 0.035 | [3] 0.003 | [4] 0.007 | [5] -0.004

NCAPD3 (UniProt P42695)
inactive: [1] 0.034 | [2] -0.03 | [3] -0.077 | [4] 0.01 | [5] -0.045

NDUFAB1 (UniProt O14561)
inactive: [1] 0.022 | [2] -0.034 | [3] 0 | [4] -0.033 | [5] 0.072

NDRG2 (UniProt Q9UN36)
inactive: [1] -0.01 | [2] 0.001 | [3] -0.065 | [4] -0.031 | [5] 0.012

NCBP2 (UniProt P52298)
inactive: [1] -0.023 | [2] -0.03 | [3] 0.029 | [4] 0.035 | [5] -0.033

NEFH (UniProt P12036)
inactive: [1] 0.246 | [2] -0.267 | [3] -0.069 | [4] 0.076 | [5] 0.071

NAA10 (UniProt P41227)
inactive: [1] 0.021 | [2] 0.041 | [3] -0.01 | [4] -0.033 | [5] -0.036

NCR3LG1 (UniProt Q68D85)
inactive: [1] -0.022 | [2] -0.031 | [3] 0.012 | [4] 0.036 | [5] -0.021

NDUFB9 (UniProt Q9Y6M9)
inactive: [1] 0.043 | [2] 0.02 | [3] 0.063 | [4] -0.023 | [5] -0.02

NCAPH (UniProt Q15003)
inactive: [1] -0.067 | [2] 0.011 | [3] 0.109 | [4] -0.007 | [5] 0.001

NA isoform 3 (UniProt Q4G0T1)
inactive: [1] 0.161 | [2] -0.017 | [3] 0.026 | [4] 0.024 | [5] -0.126

NDC1 (UniProt Q9BTX1)
inactive: [1] 0.009 | [2] 0.078 | [3] 0.02 | [4] -0.054 | [5] -0.031

NAGA (UniProt P17050)
inactive: [1] -0.043 | [2] -0.026 | [3] -0.028 | [4] 0.025 | [5] 0.062

NAA15, A0A0B4J1W3
inactive: [1] -0.147 | [2] -0.082 | [3] 0.042 | [4] 0.014 | [5] -0.029

NAP1L4 isoform 2 (UniProt Q99733)
inactive: [1] 0.011 | [2] -0.007 | [3] 0.016 | [4] -0.007 | [5] 0.02

NDUFB11 isoform 2 (UniProt Q9NX14)
inactive: [1] 0.043 | [2] 0.081 | [3] -0.013 | [4] -0.101 | [5] -0.021

NDUFV3 (UniProt P56181)
inactive: [1] 0.017 | [2] 0.069 | [3] -0.022 | [4] -0.103 | [5] 0.052

NDRG3 (UniProt Q9UGV2)
inactive: [1] -0.032 | [2] -0.094 | [3] 0.027 | [4] 0.041 | [5] -0.022

Quoted at random: two records from the list, in no set order.
NDRG3 (UniProt Q9UGV2)
inactive: [1] -0.032 | [2] -0.094 | [3] 0.027 | [4] 0.041 | [5] -0.022

NAA15, A0A0B4J1W3
inactive: [1] -0.147 | [2] -0.082 | [3] 0.042 | [4] 0.014 | [5] -0.029

(next part)

NECAP1 (UniProt Q8NC96)
inactive: [1] 0.017 | [2] 0.033 | [3] 0.073 | [4] -0.02 | [5] -0.01

NA, A0A494C071
inactive: [1] -0.172 | [2] -0.016 | [3] 0.236 | [4] 0.07 | [5] 0.072

NCL (UniProt P19338)
inactive: [1] 0.158 | [2] -0.365 | [3] -0.299 | [4] 0.227 | [5] 0

NDUFV1 (UniProt P49821)
inactive: [1] -0.018 | [2] 0.05 | [3] 0.048 | [4] -0.014 | [5] -0.045

NAPRT (UniProt Q6XQN6)
inactive: [1] -0.002 | [2] -0.003 | [3] 0.053 | [4] 0.016 | [5] 0.023

NACA4P (UniProt Q9BZK3)
inactive: [1] -0.171 | [2] 0.23 | [3] 0.035 | [4] 0.278 | [5] -0.069

MZT2A (UniProt Q6P582)
inactive: [1] 0.008 | [2] 0.051 | [3] 0.037 | [4] -0.06 | [5] 0.047

NAGLU (UniProt P54802)
inactive: [1] 0.074 | [2] -0.028 | [3] 0.026 | [4] -0.065 | [5] 0.017

NEDD8 (UniProt Q15843)
inactive: [1] -0.005 | [2] 0.098 | [3] 0.077 | [4] 0.008 | [5] -0.065

NCOA3 (UniProt Q9Y6Q9)
inactive: [1] -0.154 | [2] 0.185 | [3] 0.007 | [4] -0.091 | [5] -0.027

NDUFAF4 (UniProt Q9P032)
inactive: [1] 0.003 | [2] 0.043 | [3] 0.037 | [4] -0.008 | [5] 0

NA, A0A0B4J2A0
inactive: [1] -0.035 | [2] -0.005 | [3] 0.015 | [4] -0.097 | [5] -0.007

NDUFS3 (UniProt O75489)
inactive: [1] -0.008 | [2] 0.006 | [3] 0.03 | [4] -0.048 | [5] -0.025

NDUFB7 (UniProt P17568)
inactive: [1] -0.032 | [2] -0.01 | [3] -0.004 | [4] -0.015 | [5] 0.03

NEDD4L (UniProt Q96PU5)
inactive: [1] 0.014 | [2] 0.038 | [3] 0.039 | [4] 0.054 | [5] 0.027

NARF (UniProt Q9UHQ1)
inactive: [1] -0.014 | [2] -0.028 | [3] 0.043 | [4] 0 | [5] 0.031

NDUFB10 (UniProt O96000)
inactive: [1] 0.048 | [2] 0.009 | [3] 0.06 | [4] -0.031 | [5] 0.002

NAA50 (UniProt Q9GZZ1)
inactive: [1] 0.018 | [2] 0.016 | [3] 0 | [4] -0.056 | [5] -0.029

NDUFB6 (UniProt O95139)
inactive: [1] 0 | [2] -0.016 | [3] 0.029 | [4] 0.034 | [5] 0.073

NBN (UniProt O60934)
inactive: [1] 0.002 | [2] 0.032 | [3] 0.036 | [4] -0.004 | [5] -0.001

NAPA (UniProt P54920)
inactive: [1] -0.03 | [2] 0.016 | [3] 0.007 | [4] -0.045 | [5] -0.015

NCEH1 isoform 2 (UniProt Q6PIU2)
inactive: [1] -0.004 | [2] 0.095 | [3] 0.054 | [4] -0.043 | [5] 0.004

MZT2B (UniProt Q6NZ67)
inactive: [1] 0.012 | [2] 0.23 | [3] -0.019 | [4] 0.02 | [5] 0.085

NDE1 isoform 1 (UniProt Q9NXR1)
inactive: [1] -0.003 | [2] 0.04 | [3] 0.05 | [4] 0.007 | [5] 0.038

N4BP1 (UniProt O75113)
inactive: [1] 0.043 | [2] 0.043 | [3] 0.155 | [4] 0.004 | [5] 0.001

NDUFB4 (UniProt O95168)
inactive: [1] 0.074 | [2] 0.022 | [3] 0.084 | [4] -0.043 | [5] -0.028

NDUFA12 (UniProt Q9UI09)
inactive: [1] -0.046 | [2] 0.126 | [3] 0.145 | [4] -0.086 | [5] -0.051

NDUFS7 (UniProt O75251)
inactive: [1] 0 | [2] 0.062 | [3] 0.015 | [4] -0.051 | [5] -0.022

NDUFC2 (UniProt O95298)
inactive: [1] -0.001 | [2] 0.097 | [3] 0.026 | [4] -0.126 | [5] -0.002

NASP (UniProt P49321)
inactive: [1] -0.009 | [2] 0.049 | [3] 0.054 | [4] -0.022 | [5] 0.013

NECTIN2 (UniProt Q92692)
inactive: [1] 0.017 | [2] 0.031 | [3] -0.019 | [4] -0.009 | [5] -0.012

NDUFA10 (UniProt O95299)
inactive: [1] -0.023 | [2] -0.001 | [3] 0.064 | [4] -0.041 | [5] -0.019

NDUFB1 (UniProt O75438)
inactive: [1] -0.004 | [2] -0.059 | [3] -0.056 | [4] -0.138 | [5] 0.055

MYO9B (UniProt Q13459)
inactive: [1] -0.062 | [2] -0.012 | [3] 0.116 | [4] 0.125 | [5] -0.015

NDFIP1 (UniProt Q9BT67)
inactive: [1] 0.035 | [2] -0.162 | [3] -0.076 | [4] -0.111 | [5] 0.052
